Assay results: the supplement of paper PMC10849652
The list shows a part of the results.

Amino acid sequences for entries named in this document (tags omitted). A change or cut given only in a name is not applied to a line headed by its entry.
UniProt P56211: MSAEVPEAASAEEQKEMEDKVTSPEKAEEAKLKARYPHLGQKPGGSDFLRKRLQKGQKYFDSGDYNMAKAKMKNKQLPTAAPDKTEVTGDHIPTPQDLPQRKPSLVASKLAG
UniProt P17544: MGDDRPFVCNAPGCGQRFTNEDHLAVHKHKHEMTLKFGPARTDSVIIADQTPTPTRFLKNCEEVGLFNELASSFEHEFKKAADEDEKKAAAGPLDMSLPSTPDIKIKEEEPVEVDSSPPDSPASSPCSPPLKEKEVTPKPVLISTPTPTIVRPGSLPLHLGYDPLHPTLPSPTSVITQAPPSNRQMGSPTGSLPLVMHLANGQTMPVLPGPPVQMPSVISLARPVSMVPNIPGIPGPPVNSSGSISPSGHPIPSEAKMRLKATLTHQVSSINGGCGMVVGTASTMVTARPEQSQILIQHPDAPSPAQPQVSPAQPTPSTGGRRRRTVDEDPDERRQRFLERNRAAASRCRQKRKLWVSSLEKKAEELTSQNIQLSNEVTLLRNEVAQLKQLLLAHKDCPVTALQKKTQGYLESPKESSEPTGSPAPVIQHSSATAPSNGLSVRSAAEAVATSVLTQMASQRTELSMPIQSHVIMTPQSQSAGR
UniProt Q9NT62, whole entry, looked up: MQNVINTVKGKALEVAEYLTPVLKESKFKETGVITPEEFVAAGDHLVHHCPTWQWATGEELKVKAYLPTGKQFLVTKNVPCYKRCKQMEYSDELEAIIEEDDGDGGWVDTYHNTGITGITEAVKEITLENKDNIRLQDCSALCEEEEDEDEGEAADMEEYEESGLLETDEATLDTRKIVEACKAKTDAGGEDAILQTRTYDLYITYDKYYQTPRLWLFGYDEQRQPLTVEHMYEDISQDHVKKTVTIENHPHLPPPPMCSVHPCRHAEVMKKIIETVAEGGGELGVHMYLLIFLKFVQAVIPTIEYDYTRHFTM
UniProt P08243: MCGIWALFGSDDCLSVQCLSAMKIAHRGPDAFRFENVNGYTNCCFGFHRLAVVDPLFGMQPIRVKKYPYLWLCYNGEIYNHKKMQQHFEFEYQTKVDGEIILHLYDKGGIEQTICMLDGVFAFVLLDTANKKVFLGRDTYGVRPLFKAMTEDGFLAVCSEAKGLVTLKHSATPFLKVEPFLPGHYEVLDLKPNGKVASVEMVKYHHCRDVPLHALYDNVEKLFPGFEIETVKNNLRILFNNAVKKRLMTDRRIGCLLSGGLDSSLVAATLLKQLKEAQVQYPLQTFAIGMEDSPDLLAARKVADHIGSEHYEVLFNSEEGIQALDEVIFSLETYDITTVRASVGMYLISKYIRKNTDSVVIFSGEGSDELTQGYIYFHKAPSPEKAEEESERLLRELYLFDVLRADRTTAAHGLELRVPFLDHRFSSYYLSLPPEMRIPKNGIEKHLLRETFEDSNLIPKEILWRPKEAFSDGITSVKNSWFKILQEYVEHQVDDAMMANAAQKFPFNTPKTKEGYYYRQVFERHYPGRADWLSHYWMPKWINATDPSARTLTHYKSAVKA
UniProt Q8N5M1: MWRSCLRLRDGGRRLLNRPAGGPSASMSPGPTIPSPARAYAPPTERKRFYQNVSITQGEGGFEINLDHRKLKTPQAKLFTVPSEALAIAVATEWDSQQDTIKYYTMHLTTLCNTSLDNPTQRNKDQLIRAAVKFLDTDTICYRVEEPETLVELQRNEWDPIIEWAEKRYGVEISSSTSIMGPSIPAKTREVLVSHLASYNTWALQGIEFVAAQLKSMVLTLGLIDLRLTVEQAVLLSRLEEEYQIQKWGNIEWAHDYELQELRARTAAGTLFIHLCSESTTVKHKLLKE
UniProt O94817, whole entry, looked up: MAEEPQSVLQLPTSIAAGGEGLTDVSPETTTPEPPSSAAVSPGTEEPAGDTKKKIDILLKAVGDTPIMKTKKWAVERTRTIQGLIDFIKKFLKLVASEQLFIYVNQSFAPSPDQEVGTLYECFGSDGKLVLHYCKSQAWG
UniProt Q13315: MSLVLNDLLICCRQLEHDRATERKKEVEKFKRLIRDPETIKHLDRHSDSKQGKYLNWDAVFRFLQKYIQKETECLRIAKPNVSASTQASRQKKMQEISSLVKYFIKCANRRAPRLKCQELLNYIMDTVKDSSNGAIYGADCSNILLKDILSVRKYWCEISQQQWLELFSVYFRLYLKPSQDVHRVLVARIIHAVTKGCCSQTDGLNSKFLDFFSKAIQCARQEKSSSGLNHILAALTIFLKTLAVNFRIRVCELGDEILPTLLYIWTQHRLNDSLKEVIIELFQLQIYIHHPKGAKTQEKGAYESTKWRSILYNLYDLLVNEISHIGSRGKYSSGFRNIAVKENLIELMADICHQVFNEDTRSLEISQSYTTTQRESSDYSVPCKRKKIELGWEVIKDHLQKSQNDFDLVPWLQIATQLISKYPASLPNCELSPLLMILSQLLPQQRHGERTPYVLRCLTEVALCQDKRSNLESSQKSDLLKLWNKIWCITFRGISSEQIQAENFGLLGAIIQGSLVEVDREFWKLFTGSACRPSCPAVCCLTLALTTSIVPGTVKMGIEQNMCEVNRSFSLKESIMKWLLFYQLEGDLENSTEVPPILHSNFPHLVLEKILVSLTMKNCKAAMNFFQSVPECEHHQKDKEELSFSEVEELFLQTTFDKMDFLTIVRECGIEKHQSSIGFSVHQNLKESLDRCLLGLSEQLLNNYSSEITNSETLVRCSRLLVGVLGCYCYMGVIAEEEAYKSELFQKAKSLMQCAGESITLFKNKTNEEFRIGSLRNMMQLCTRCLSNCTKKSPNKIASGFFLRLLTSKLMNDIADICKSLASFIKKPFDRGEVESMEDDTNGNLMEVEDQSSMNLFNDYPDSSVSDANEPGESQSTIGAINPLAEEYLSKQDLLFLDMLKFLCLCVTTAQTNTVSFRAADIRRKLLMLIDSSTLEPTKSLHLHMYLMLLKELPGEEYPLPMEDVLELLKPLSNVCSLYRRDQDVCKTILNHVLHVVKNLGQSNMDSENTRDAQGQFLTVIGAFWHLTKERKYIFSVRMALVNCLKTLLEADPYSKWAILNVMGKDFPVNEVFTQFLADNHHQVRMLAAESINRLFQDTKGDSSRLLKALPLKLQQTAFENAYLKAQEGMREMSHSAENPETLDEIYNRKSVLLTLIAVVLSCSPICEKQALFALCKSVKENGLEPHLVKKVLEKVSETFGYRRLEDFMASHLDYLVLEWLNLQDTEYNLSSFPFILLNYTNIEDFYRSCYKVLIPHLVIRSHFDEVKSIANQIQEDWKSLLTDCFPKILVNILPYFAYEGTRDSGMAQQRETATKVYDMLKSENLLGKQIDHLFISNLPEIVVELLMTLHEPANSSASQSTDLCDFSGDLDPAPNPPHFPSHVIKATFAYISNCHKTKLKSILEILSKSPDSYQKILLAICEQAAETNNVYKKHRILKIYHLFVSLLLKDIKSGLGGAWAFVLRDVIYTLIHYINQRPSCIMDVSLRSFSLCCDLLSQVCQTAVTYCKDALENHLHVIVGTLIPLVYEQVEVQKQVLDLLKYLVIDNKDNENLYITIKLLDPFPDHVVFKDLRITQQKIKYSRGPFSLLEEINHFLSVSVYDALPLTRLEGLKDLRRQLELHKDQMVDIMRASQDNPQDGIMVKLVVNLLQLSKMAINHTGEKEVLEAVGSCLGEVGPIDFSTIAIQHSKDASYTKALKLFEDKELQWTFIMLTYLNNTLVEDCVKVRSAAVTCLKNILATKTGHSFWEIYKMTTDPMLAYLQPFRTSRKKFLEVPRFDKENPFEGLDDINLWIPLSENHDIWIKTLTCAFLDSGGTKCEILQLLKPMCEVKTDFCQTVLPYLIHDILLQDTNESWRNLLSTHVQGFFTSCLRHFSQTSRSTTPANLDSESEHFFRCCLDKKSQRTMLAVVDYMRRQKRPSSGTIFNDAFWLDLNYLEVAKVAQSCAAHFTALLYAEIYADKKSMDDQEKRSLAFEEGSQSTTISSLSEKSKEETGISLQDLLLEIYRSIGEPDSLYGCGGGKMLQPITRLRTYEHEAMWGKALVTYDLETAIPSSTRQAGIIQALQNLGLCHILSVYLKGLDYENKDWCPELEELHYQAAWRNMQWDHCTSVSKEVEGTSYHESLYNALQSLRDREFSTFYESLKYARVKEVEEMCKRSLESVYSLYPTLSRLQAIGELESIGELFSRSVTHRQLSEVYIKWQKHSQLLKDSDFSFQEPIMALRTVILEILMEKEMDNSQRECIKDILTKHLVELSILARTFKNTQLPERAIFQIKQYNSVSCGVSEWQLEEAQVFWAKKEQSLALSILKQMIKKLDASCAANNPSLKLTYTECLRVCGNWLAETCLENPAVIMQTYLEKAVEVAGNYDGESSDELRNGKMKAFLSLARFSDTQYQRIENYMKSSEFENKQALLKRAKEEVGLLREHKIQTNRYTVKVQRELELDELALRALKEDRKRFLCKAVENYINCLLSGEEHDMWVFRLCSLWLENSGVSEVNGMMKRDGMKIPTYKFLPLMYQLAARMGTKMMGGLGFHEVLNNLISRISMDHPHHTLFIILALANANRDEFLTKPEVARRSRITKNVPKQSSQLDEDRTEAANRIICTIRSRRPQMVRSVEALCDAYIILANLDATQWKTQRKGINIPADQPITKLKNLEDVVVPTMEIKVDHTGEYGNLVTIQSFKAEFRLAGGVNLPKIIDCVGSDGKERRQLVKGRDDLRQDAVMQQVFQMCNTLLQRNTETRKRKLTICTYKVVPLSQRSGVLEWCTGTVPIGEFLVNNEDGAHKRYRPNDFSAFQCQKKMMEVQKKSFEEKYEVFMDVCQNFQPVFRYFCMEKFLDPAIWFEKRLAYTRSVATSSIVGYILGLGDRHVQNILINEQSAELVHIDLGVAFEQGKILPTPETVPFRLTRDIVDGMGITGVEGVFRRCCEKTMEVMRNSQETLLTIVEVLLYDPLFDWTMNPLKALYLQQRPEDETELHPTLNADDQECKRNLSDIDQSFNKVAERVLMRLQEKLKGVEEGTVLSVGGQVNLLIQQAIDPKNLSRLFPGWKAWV
UniProt O75964: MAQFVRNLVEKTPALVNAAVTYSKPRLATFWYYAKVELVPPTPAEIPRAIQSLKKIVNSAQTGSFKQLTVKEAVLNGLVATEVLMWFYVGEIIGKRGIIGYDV
UniProt P30049: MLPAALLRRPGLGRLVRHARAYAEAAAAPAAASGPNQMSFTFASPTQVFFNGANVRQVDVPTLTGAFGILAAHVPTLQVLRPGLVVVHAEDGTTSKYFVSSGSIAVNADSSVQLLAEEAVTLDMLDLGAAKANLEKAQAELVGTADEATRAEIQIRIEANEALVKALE
UniProt O75348, whole entry, looked up: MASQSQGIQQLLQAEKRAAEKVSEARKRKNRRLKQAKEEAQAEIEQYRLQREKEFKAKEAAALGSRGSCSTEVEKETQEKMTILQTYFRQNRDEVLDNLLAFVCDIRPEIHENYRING
UniProt Q5TC12: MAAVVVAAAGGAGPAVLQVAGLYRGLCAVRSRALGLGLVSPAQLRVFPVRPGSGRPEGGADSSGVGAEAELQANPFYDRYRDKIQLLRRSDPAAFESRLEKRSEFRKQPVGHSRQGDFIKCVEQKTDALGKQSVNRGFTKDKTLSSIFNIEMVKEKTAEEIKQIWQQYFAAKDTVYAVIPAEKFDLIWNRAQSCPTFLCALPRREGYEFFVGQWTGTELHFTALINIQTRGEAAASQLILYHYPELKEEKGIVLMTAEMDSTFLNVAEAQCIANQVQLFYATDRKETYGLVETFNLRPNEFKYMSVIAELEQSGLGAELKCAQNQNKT
UniProt Q9Y6H3: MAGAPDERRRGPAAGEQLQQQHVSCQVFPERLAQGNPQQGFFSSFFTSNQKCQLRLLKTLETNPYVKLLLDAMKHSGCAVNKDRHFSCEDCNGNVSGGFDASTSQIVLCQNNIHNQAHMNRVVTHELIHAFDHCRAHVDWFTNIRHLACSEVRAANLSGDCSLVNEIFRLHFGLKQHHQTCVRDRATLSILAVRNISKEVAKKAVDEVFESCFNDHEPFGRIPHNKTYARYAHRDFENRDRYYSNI
UniProt Q8N2F6: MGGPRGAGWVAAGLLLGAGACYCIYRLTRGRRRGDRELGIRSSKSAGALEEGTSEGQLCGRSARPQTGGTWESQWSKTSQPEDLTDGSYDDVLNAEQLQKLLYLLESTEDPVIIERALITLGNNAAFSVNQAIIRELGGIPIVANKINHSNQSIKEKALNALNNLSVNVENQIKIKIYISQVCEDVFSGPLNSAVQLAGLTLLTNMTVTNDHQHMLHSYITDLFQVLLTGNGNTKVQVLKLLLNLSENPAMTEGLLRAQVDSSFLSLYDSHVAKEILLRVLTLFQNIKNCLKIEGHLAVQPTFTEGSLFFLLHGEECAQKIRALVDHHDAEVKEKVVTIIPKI
UniProt P48047: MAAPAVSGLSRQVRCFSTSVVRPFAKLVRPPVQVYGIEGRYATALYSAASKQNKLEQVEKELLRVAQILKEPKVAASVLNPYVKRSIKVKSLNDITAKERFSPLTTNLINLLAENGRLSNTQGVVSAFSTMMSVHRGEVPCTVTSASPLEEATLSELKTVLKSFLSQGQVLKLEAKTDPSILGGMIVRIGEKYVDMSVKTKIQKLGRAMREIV
UniProt O00244: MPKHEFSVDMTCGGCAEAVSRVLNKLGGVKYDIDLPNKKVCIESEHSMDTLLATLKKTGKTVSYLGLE

Assays:
Assay in all cases: log2 fold change, soluble protein after heating vs DMSO (PISA); higher = thermal stabilisation; K562 cells, 10 uM, 30 min; active = over 0.2 and 3.5 SD of the protein, either way, in both replicates (recomputed)
[1] = compound: COC1=CC=C(C=C1)CN2C=CC3=C2C=C(C=C3)C(=O)NO
Outline: (§1)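 Values are thermal stability changes relative to control samples and are taken from duplicates. They are stated as log2 fold changes. Before quantification by TMTpro 16plex LC-MS/MS with equalised channel sums, K562 cells at 2×10^6 cells/mL were treated with 10 μM compound for 30 min, heated in aliquots for 3 min across 48°C-58°C, pooled, extracted in PBS with 0.5% NP-40 at 4°C, and centrifuged at 21,000xg for 90 min to give the soluble supernatant.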

filanesib = compound: CON(C)C(=O)N1N=C(c2cc(F)ccc2F)S[C@@]1(CCCN)c1ccccc1 [filanesib]
Outline: as §1

zotarolimus = compound: CO[C@H]1C[C@@H]2CC[C@@H](C)[C@@](O)(O2)C(=O)C(=O)N2CCCC[C@H]2C(=O)O[C@H]([C@H](C)C[C@@H]2CC[C@H](n3cnnn3)[C@H](OC)C2)CC(=O)[C@H](C)/C=C(\C)[C@@H](O)[C@@H](OC)C(=O)[C@H](C)C[C@H](C)/C=C/C=C/C=C/1C [zotarolimus]
Outline: as §1

idasanutlin = compound: COc1cc(C(=O)O)ccc1NC(=O)[C@@H]1N[C@@H](CC(C)(C)C)[C@](C#N)(c2ccc(Cl)cc2F)[C@H]1c1cccc(Cl)c1F [idasanutlin]
Outline: as §1

alisertib = compound: COc1cc(Nc2ncc3c(n2)-c2ccc(Cl)cc2C(c2c(F)cccc2OC)=NC3)ccc1C(=O)O [alisertib]
Outline: as §1

[2] = compound: COc1cc2nc(-c3cc(F)ccc3O)nc(N[C@@H]3CNC[C@H]3C(C)(C)O)c2cc1OC
Outline: as §1

gefitinib = compound: COc1cc2ncnc(Nc3ccc(F)c(Cl)c3)c2cc1OCCCN1CCOCC1 [gefitinib]
Outline: as §1

[3] = compound: COc1cccc2cc(-c3nc([C@H]4CC[C@H](C(=O)O)CC4)n4ncnc(N)c34)[nH]c12
Outline: as §1

lapatinib = compound: CS(=O)(=O)CCNCc1ccc(-c2ccc3ncnc(Nc4ccc(OCc5cccc(F)c5)c(Cl)c4)c3c2)o1 [lapatinib]
Outline: as §1

pictilisib = compound: CS(=O)(=O)N1CCN(Cc2cc3nc(-c4cccc5[nH]ncc45)nc(N4CCOCC4)c3s2)CC1 [pictilisib]
Outline: as §1

Measured: log2 fold change

ARPP19 (UniProt P56211)
inactive: filanesib 0.033 | zotarolimus -0.016 | idasanutlin 0.002 | alisertib -0.061 | [2] -0.184 | gefitinib -0.007 | [3] 0.075 | lapatinib -0.01 | pictilisib -0.073
active: [1] 0.294

ATF7 isoform 6 (UniProt P17544)
inactive: [1] 0.04 | filanesib 0.417 | zotarolimus 0.03 | idasanutlin 0.084 | alisertib -0.007 | [2] -0.004 | gefitinib 0.09 | [3] 0.09 | lapatinib 0.121

ATP2B1 isoform 1 (UniProt P20020)
inactive: [1] -0.003 | filanesib 0.073 | zotarolimus -0.046 | idasanutlin -0.021 | alisertib -0.042 | [2] 0.102 | gefitinib 0.024 | [3] 0.068 | lapatinib -0.01 | pictilisib 0.048

ARPC3 (UniProt O15145)
inactive: [1] -0.006 | filanesib 0.056 | zotarolimus 0 | idasanutlin 0.022 | alisertib -0.037 | [2] -0.002 | gefitinib 0.001 | [3] 0.129 | lapatinib 0.011 | pictilisib 0.073

ATG3 (UniProt Q9NT62)
inactive: [1] -0.016 | filanesib -0.041 | zotarolimus -0.028 | idasanutlin -0.01 | alisertib -0.055 | [2] 0.035 | gefitinib 0.036 | [3] 0.006 | lapatinib -0.05 | pictilisib 0.048

ASNS (UniProt P08243)
inactive: [1] 0.027 | filanesib -0.073 | zotarolimus -0.002 | idasanutlin -0.021 | alisertib -0.027 | [2] 0.02 | gefitinib -0.032 | [3] 0.034 | lapatinib -0.017 | pictilisib 0.019

ATAD3B (UniProt Q5T9A4)
inactive: [1] -0.035 | filanesib 0.089 | zotarolimus -0.064 | idasanutlin 0.081 | alisertib 0.193 | [2] -0.138 | gefitinib -0.134 | [3] -0.136 | lapatinib -0.047 | pictilisib -0.161

ARL6IP1 (UniProt Q15041)
inactive: [1] 0.122 | filanesib -0.131 | zotarolimus 0.04 | idasanutlin -0.026 | alisertib -0.017 | [2] -0.045 | gefitinib -0.013 | [3] 0.062 | lapatinib -0.002 | pictilisib -0.064

ASPM (UniProt Q8IZT6)
inactive: [1] -0.03 | filanesib -0.075 | zotarolimus 0.068 | idasanutlin 0.095 | alisertib 0.009 | [2] 0.017 | gefitinib 0.019 | [3] -0.051 | lapatinib 0.015 | pictilisib -0.117

ATPAF2 (UniProt Q8N5M1)
inactive: [1] -0.014 | filanesib -0.038 | zotarolimus 0.016 | idasanutlin -0.151 | alisertib -0.132 | [2] 0.001 | gefitinib 0.024 | [3] 0.06 | lapatinib 0.014 | pictilisib -0.03

ATP11C (UniProt Q8NB49)
inactive: [1] 0.061 | filanesib 0.006 | zotarolimus -0.047 | idasanutlin 0.006 | alisertib -0.034 | [2] 0.063 | gefitinib -0.005 | [3] 0.031 | lapatinib 0.032 | pictilisib 0.092

ATG12 (UniProt O94817)
inactive: [1] 0.04 | filanesib -0.067 | zotarolimus -0.026 | idasanutlin -0.031 | alisertib -0.046 | [2] 0.04 | gefitinib -0.063 | [3] -0.045 | lapatinib 0 | pictilisib -0.122

ATM (UniProt Q13315)
inactive: [1] -0.031 | filanesib -0.062 | zotarolimus 0 | idasanutlin -0.118 | alisertib -0.016 | [2] 0.061 | gefitinib 0.01 | [3] 0.003 | lapatinib 0.131 | pictilisib -0.02

ARV1 (UniProt Q9H2C2)
inactive: [1] -0.058 | filanesib -0.094 | zotarolimus -0.032 | idasanutlin -0.043 | alisertib 0.007 | [2] -0.131 | gefitinib -0.018 | [3] 0.086 | lapatinib 0.033 | pictilisib -0.051

ATP5MG (UniProt O75964)
inactive: [1] -0.134 | filanesib -0.012 | zotarolimus -0.064 | idasanutlin 0.011 | alisertib -0.028 | [2] 0.031 | gefitinib 0.011 | [3] 0.082 | lapatinib -0.094 | pictilisib 0.212

ATAD3A isoform 2 (UniProt Q9NVI7)
inactive: [1] -0.029 | filanesib -0.005 | zotarolimus -0.053 | idasanutlin 0.073 | alisertib -0.006 | [2] -0.116 | gefitinib -0.199 | [3] 0.001 | lapatinib -0.029 | pictilisib -0.185

ARL2 (UniProt P36404)
inactive: [1] -0.069 | filanesib -0.089 | zotarolimus -0.029 | idasanutlin -0.113 | alisertib 0.003 | [2] 0.07 | gefitinib 0.015 | [3] 0.049 | lapatinib -0.072 | pictilisib 0.005

ATP5F1D (UniProt P30049)
inactive: [1] -0.028 | filanesib 0.037 | zotarolimus 0.011 | idasanutlin -0.118 | alisertib -0.076 | [2] -0.066 | gefitinib 0.009 | [3] 0.014 | lapatinib -0.063 | pictilisib 0

ARL3 (UniProt P36405)
inactive: [1] 0 | filanesib -0.017 | zotarolimus -0.006 | idasanutlin -0.062 | alisertib -0.076 | [2] -0.007 | gefitinib -0.018 | [3] 0.047 | lapatinib -0.03 | pictilisib 0.031

ATP6V1G1 (UniProt O75348)
inactive: [1] -0.03 | filanesib -0.006 | zotarolimus 0.012 | idasanutlin 0.023 | alisertib -0.158 | [2] -0.035 | gefitinib -0.084 | [3] -0.087 | lapatinib -0.018 | pictilisib 0.041

ARPC1B (UniProt O15143)
inactive: [1] 0.185 | filanesib 0.018 | zotarolimus 0.138 | idasanutlin -0.045 | alisertib -0.11 | [2] -0.139 | gefitinib 0.059 | [3] 0.04 | lapatinib 0.163 | pictilisib -0.103

ATP6V0A1 isoform 3 (UniProt Q93050)
inactive: [1] 0.021 | filanesib -0.105 | zotarolimus 0.073 | idasanutlin 0.112 | alisertib 0.027 | [2] -0.298 | gefitinib -0.18 | [3] -0.21 | lapatinib 0.033 | pictilisib -0.284

ATPAF1 (UniProt Q5TC12)
inactive: [1] -0.005 | filanesib -0.115 | zotarolimus -0.023 | idasanutlin -0.013 | alisertib -0.013 | [2] -0.037 | gefitinib -0.019 | [3] 0.054 | lapatinib 0.057 | pictilisib 0.049

ATP23 (UniProt Q9Y6H3)
inactive: [1] 0.003 | filanesib -0.082 | zotarolimus 0.005 | idasanutlin 0.032 | alisertib -0.033 | [2] -0.096 | gefitinib -0.062 | [3] 0.067 | lapatinib 0.007 | pictilisib 0.018

ARPC5L (UniProt Q9BPX5)
inactive: [1] -0.026 | filanesib 0.052 | zotarolimus 0.032 | idasanutlin -0.062 | alisertib -0.022 | [2] 0.044 | gefitinib 0.02 | [3] 0.051 | lapatinib 0.002 | pictilisib 0.069

ARMC10 (UniProt Q8N2F6)
inactive: [1] 0.011 | filanesib 0.046 | zotarolimus 0.107 | idasanutlin -0.092 | alisertib -0.039 | [2] 0.117 | gefitinib 0.004 | [3] -0.133 | lapatinib -0.01 | pictilisib 0.07

ATP5PO (UniProt P48047)
inactive: [1] 0.042 | filanesib -0.025 | zotarolimus 0 | idasanutlin 0.043 | alisertib -0.063 | [2] -0.008 | gefitinib -0.001 | [3] 0.038 | lapatinib 0 | pictilisib 0.003

ARMC1 (UniProt Q9NVT9)
inactive: [1] 0.005 | filanesib -0.139 | zotarolimus 0.003 | idasanutlin -0.122 | alisertib 0.005 | [2] -0.111 | gefitinib 0.026 | [3] -0.006 | lapatinib 0.026 | pictilisib -0.028

ATP13A1 (UniProt Q9HD20)
inactive: [1] -0.039 | filanesib -0.06 | zotarolimus 0 | idasanutlin -0.105 | alisertib -0.046 | [2] -0.044 | gefitinib -0.023 | [3] 0.01 | lapatinib 0.032 | pictilisib 0.04

6 successive records already listed:
ATG3 (UniProt Q9NT62)
inactive: [1] -0.016 | filanesib -0.041 | zotarolimus -0.028 | idasanutlin -0.01 | alisertib -0.055 | [2] 0.035 | gefitinib 0.036 | [3] 0.006 | lapatinib -0.05 | pictilisib 0.048

ASNS (UniProt P08243)
inactive: [1] 0.027 | filanesib -0.073 | zotarolimus -0.002 | idasanutlin -0.021 | alisertib -0.027 | [2] 0.02 | gefitinib -0.032 | [3] 0.034 | lapatinib -0.017 | pictilisib 0.019

ATAD3B (UniProt Q5T9A4)
inactive: [1] -0.035 | filanesib 0.089 | zotarolimus -0.064 | idasanutlin 0.081 | alisertib 0.193 | [2] -0.138 | gefitinib -0.134 | [3] -0.136 | lapatinib -0.047 | pictilisib -0.161

ARL6IP1 (UniProt Q15041)
inactive: [1] 0.122 | filanesib -0.131 | zotarolimus 0.04 | idasanutlin -0.026 | alisertib -0.017 | [2] -0.045 | gefitinib -0.013 | [3] 0.062 | lapatinib -0.002 | pictilisib -0.064

ASPM (UniProt Q8IZT6)
inactive: [1] -0.03 | filanesib -0.075 | zotarolimus 0.068 | idasanutlin 0.095 | alisertib 0.009 | [2] 0.017 | gefitinib 0.019 | [3] -0.051 | lapatinib 0.015 | pictilisib -0.117

ATPAF2 (UniProt Q8N5M1)
inactive: [1] -0.014 | filanesib -0.038 | zotarolimus 0.016 | idasanutlin -0.151 | alisertib -0.132 | [2] 0.001 | gefitinib 0.024 | [3] 0.06 | lapatinib 0.014 | pictilisib -0.03

Next part

ATOX1 (UniProt O00244)
active: [1] 0.471
inactive: filanesib -0.122 | zotarolimus 0.113 | idasanutlin -0.096 | alisertib -0.062 | [2] -0.388 | gefitinib -0.036 | [3] -0.07 | lapatinib 0.314 | pictilisib -0.015
